{
  "source": "paper PMC2814343",
  "about": "(Analytical chemistry, 2010)",
  "test_system": "monoclonal mouse anti-morphine IgG1 (α-M Ab)",
  "test": "Label-free porous silicon",
  "settings": "read-out: EC50 (effective concentration where 50% of signal response was attained); α-M Ab 1.83 μM (15 μl); morphine in urine 15 μl",
  "data": [
    {"smiles": "CN1CC[C@]23c4c5ccc(O)c4O[C@H]2[C@@H](O)C=C[C@H]3[C@H]1C5", "note": "[morphine, Morphine]", "values": [
      {"measurement": "EC50", "value": 1360, "unit": "nM"}
    ]}
  ]
}
